This assay deals with P388 leukemia ip, CD2F1 mice, survival T/C. In words: NCI In Vivo Anticancer Drug Screen. Data for tumor model P388 Leukemia (intraperitoneal) in CD2F1 (CDF1) mice. Conditions: T/C endpoint: median survival time, higher T/C = longer survival.
Where [1] appears, read: dose: 12.5 mg/kg/injection, schedule: Q04DX003 (ip), vehicle: saline with Tween-80.
The mark [2] stands for this setting: dose: 50.0 mg/kg/injection, schedule: Q04DX003 (ip), vehicle: Klucel (hydroxypropylcellulose) (HPC).
[3] abbreviates: dose: 100.0 mg/kg/injection, schedule: Q04DX003 (ip), vehicle: Klucel (hydroxypropylcellulose) (HPC).
[4] abbreviates: dose: 200.0 mg/kg/injection, schedule: Q04DX003 (ip), vehicle: Klucel (hydroxypropylcellulose) (HPC).
Where [5] appears, read: dose: 12.5 mg/kg/injection, schedule: Q01DX009 (ip), vehicle: Klucel (hydroxypropylcellulose) (HPC).

The list is a part of this screen's results and no random one: its compounds were picked by chemical class. Other doses and runs of a compound may be missing. T/C: endpoint of the treated group in % of that of the vehicle group. Some doses have a count of surviving animals in place of a T/C: the source holds a T/C of zero for them, seemingly a mark for toxic or unscored doses. Some survivor counts are full or nearly so, which does not show that the dose was tolerated: the source hardly ever lists a survival T/C far under the control, and the zero likely stands for such cases as well. Counts of survivors are from the toxicity check (mostly the fifth day) where no day follows; animals may have died later. Schedule codes are those of the source, read here as Q, the interval in days (D) or hours (H), X, the number of doses. For survival time, this PubChem deposit counts one and a half times the control or more as active, and values a quarter to a half above the control carry no call in these data; other NCI protocols may use other cut-offs. Some entries show no survivor count and are marked so; the dose need not have been tolerated. Signs of the kind (2×) say how often a value occurs here. Some doses were run more than once; the results are listed from low to high. Some T/C values carry the count of animals alive at the toxicity check (mostly the fifth day); without a count or a note in brackets, all were alive then.

`ClCCN(CCCl)c1ccc(Oc2ccccc2)cc1`: the T/C was 150 % of control [survivor count not shown] (dose: 88.0 mg/kg/injection, schedule: Q01DX009 (ip), vehicle: other); 91 % of control [survivor count not shown] (dose: 88.0 mg/kg/injection, schedule: Q04DX003 (ip), vehicle: other); 145 % of control [survivor count not shown] (dose: 132.0 mg/kg/injection, schedule: Q01DX009 (ip), vehicle: other); 91 % of control [survivor count not shown] (dose: 132.0 mg/kg/injection, schedule: Q04DX003 (ip), vehicle: other); 154 % of control [survivor count not shown] (dose: 200.0 mg/kg/injection, schedule: Q01DX009 (ip), vehicle: other); 150 % of control [survivor count not shown] (dose: 200.0 mg/kg/injection, schedule: Q04DX003 (ip), vehicle: other). The T/C (dose: 300.0 mg/kg/injection, schedule: Q01DX009 (ip), vehicle: other) was 190 % of control [survivor count not shown] and the T/C (dose: 300.0 mg/kg/injection, schedule: Q04DX003 (ip), vehicle: other) was 129 % of control [survivor count not shown].
As for `O=P1(N(CCCl)CCCl)NCC2OCCCC2O1` (stereo unspecified), the T/C is 104 % of control (dose: 25.0 mg/kg/injection, schedule: Q01DX005 (ip), vehicle: Klucel (hydroxypropylcellulose) (HPC)); 100 % of control (dose: 50.0 mg/kg/injection, schedule: Q01DX005 (ip), vehicle: Klucel (hydroxypropylcellulose) (HPC)); 111 % of control (dose: 100.0 mg/kg/injection, schedule: Q01DX005 (ip), vehicle: Klucel (hydroxypropylcellulose) (HPC)).
`ClCCN(CCCl)CCc1ccccc1`: the T/C runs as follows: (dose: 2.0 mg/kg/injection, schedule: Q01DX009 (ip), vehicle: saline) 145 % of control [survivor count not shown]; (dose: 3.13 mg/kg/injection, schedule: Q01DX009 (ip), vehicle: saline) 145 % of control [survivor count not shown] (2×); (dose: 4.6 mg/kg/injection, schedule: Q01DX009 (ip), vehicle: saline) 154 % of control [survivor count not shown]; under setting [1], 91 % of control [survivor count not shown].
Take `NC1(C(=O)O)CCc2ccc(N(CCCl)CCCl)cc21` (stereo unspecified): the T/C was 166 % of control [survivor count not shown] (dose: 12.5 mg/kg/injection, schedule: Q04DX003 (ip), vehicle: Klucel (hydroxypropylcellulose) (HPC)); 203 % of control [survivor count not shown] (dose: 25.0 mg/kg/injection, schedule: Q04DX003 (ip), vehicle: Klucel (hydroxypropylcellulose) (HPC)); 205 [survivor count not shown] and 265 % of control [survivor count not shown] under setting [2]; 248 % of control [survivor count not shown] under setting [3]; 116 % of control [survivor count not shown] under setting [4].
Take `O=C(O)CCCCCCCCCCN(CCCl)CCCl`: the T/C was 107 % of control [survivor count not shown] (dose: 1.56 mg/kg/injection, schedule: Q04DX003 (ip), vehicle: suspension in saline); 132 % of control [survivor count not shown] (dose: 3.13 mg/kg/injection, schedule: Q04DX003 (ip), vehicle: suspension in saline); 134 % of control [survivor count not shown] (dose: 6.25 mg/kg/injection, schedule: Q04DX003 (ip), vehicle: saline); 128 % of control [survivor count not shown] (dose: 6.25 mg/kg/injection, schedule: Q04DX003 (ip), vehicle: suspension in saline); 168 % of control [survivor count not shown] (dose: 12.5 mg/kg/injection, schedule: Q04DX003 (ip), vehicle: saline); 153 % of control [survivor count not shown] (dose: 12.5 mg/kg/injection, schedule: Q04DX003 (ip), vehicle: suspension in saline).
Regarding `O=C1C=C(N(CCCl)CCCl)C(=O)c2ccccc21`, the T/C was 111 % of control (dose: 1.58 mg/kg/injection, schedule: Q01DX009 (ip), vehicle: Klucel (hydroxypropylcellulose) (HPC)); 110 % of control [5 of 6 alive] (dose: 3.12 mg/kg/injection, schedule: Q01DX009 (ip), vehicle: Klucel (hydroxypropylcellulose) (HPC)); 110 % of control (dose: 6.25 mg/kg/injection, schedule: Q01DX009 (ip), vehicle: Klucel (hydroxypropylcellulose) (HPC)); 113 % of control under setting [5]; 96 % of control (dose: 25.0 mg/kg/injection, schedule: Q01DX009 (ip), vehicle: Klucel (hydroxypropylcellulose) (HPC), evaluated on day 30); 95 % of control [survivor count not shown] (dose: 25.0 mg/kg/injection, schedule: Q01DX009 (ip), vehicle: Klucel (hydroxypropylcellulose) (HPC), evaluation day not shown). In addition, the T/C (dose: 50.0 mg/kg/injection, schedule: Q01DX009 (ip), vehicle: Klucel (hydroxypropylcellulose) (HPC), evaluated on day 30) was 94 % of control; the T/C (dose: 50.0 mg/kg/injection, schedule: Q01DX009 (ip), vehicle: Klucel (hydroxypropylcellulose) (HPC), evaluation day not shown) is 106 [survivor count not shown] and 132 % of control [survivor count not shown]; the T/C (dose: 100.0 mg/kg/injection, schedule: Q01DX009 (ip), vehicle: Klucel (hydroxypropylcellulose) (HPC), evaluated on day 30) is 97 % of control; the T/C (dose: 100.0 mg/kg/injection, schedule: Q01DX009 (ip), vehicle: Klucel (hydroxypropylcellulose) (HPC), evaluation day not shown) is 112 [survivor count not shown] and 121 % of control [survivor count not shown]; the T/C (dose: 200.0 mg/kg/injection, schedule: Q01DX009 (ip), vehicle: Klucel (hydroxypropylcellulose) (HPC), evaluated on day 30) was 96 % of control; the T/C (dose: 200.0 mg/kg/injection, schedule: Q01DX009 (ip), vehicle: Klucel (hydroxypropylcellulose) (HPC), evaluation day not shown) is 107 [survivor count not shown] and 151 % of control [survivor count not shown]. Besides, the T/C reads like this: (dose: 400.0 mg/kg/injection, schedule: Q01DX009 (ip), vehicle: Klucel (hydroxypropylcellulose) (HPC), evaluated on day 30) 94 % of control; (dose: 400.0 mg/kg/injection, schedule: Q01DX009 (ip), vehicle: Klucel (hydroxypropylcellulose) (HPC), evaluation day not shown) 100 % of control [survivor count not shown]. Further, the survivor count under setting [5] is on record as 6 of 6.
Turning to `OC1OC(CN(CCCl)CCCl)C(O)C1O` (stereo unspecified), the T/C (dose: 0.78 mg/kg/injection, schedule: Q01DX009 (ip), vehicle: saline) was 101 % of control [survivor count not shown] and the T/C (dose: 1.56 mg/kg/injection, schedule: Q01DX009 (ip), vehicle: saline) is 101 % of control [survivor count not shown].
`ClCCN(CCCl)C1CCOc2ccccc21` (stereo unspecified): the T/C under setting [2] was 254 % of control [survivor count not shown], the T/C under setting [3] was 172 % of control [survivor count not shown] and the T/C under setting [4] is 142 % of control [survivor count not shown].
As for `Oc1ccc(Cl)cc1CN(CCCl)CCCl`, the T/C (dose: 3.13 mg/kg/injection, schedule: Q04DX003 (ip), vehicle: saline with Tween-80) was 123 % of control [survivor count not shown]; the T/C (dose: 6.25 mg/kg/injection, schedule: Q01DX009 (ip), vehicle: saline with Tween-80) was 136 % of control [survivor count not shown]; the T/C (dose: 6.25 mg/kg/injection, schedule: Q04DX003 (ip), vehicle: saline with Tween-80) is 133 % of control [survivor count not shown]; the T/C (dose: 12.5 mg/kg/injection, schedule: Q01DX009 (ip), vehicle: saline with Tween-80) is 90 % of control [survivor count not shown]; the T/C under setting [1] was 152 % of control [survivor count not shown]; the T/C (dose: 16.5 mg/kg/injection, schedule: Q04DX003 (ip), vehicle: saline with Tween-80) is 140 % of control [survivor count not shown]. The T/C (dose: 37.5 mg/kg/injection, schedule: Q04DX003 (ip), vehicle: saline with Tween-80) is 145 % of control [survivor count not shown].
For the compound `CCCCC#CCN(CCCl)CCCl`, the T/C was 155 % of control [survivor count not shown] (dose: 6.25 mg/kg/injection, schedule: Q01DX009 (ip), vehicle: saline); 128 % of control [survivor count not shown] (dose: 12.5 mg/kg/injection, schedule: Q01DX009 (ip), vehicle: saline); 146 [survivor count not shown] and 166 % of control [survivor count not shown] (dose: 25.0 mg/kg/injection, schedule: Q01DX009 (ip), vehicle: saline).

The values above are taken from PubChem BioAssay AID330 (DTP/NCI, 2004).
